From the supplement of paper PMC9254222
Over roughly 1,100 compounds, “Renilla luciferase signal (cell health) relative to plate median” has its median near 0.97; the highest 2% begin near 1.6. Only a part is listed here, and it is no random draw.

Test system: HEK293T (UBE3A T485A transfected, BAR Wnt reporter)
Assay: Renilla luciferase signal (cell health) relative to plate median (fold (linear ratio)); higher = higher Renilla signal
Details: 24 h
Outline: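 HEK293T cells were seeded at 4500 cells/well in white 384-well plates and grown in DMEM with 10% FBS at 37°C and 5% CO2. The cells were transfected using Fugene 6 with a BAR firefly luciferase Wnt reporter, TK-Renilla and an expression plasmid, and four hours later robots added the chemicals at 0.01–100 uM for 24 h before a Dual-Glo luciferase readout. Wnt activity was taken as the firefly/Renilla ratio and cell health as raw Renilla, each median-centred per plate. Values are averages of four biological replicates.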

Q: What does the source list for Nc1ccc(Cl)cc1N [4-Chloro-1,2-diaminobenzene]?
A: Renilla luciferase signal (concentration: 0.1 uM): 1.05; Renilla luciferase signal (concentration: 1 uM): 0.965; Renilla luciferase signal (concentration: 10 uM): 0.612; Renilla luciferase signal (concentration: 100 uM): 0.0486

Q: What does the source list for CCOC(=O)C(Cl)Cc1cc(-n2nc(C)n(C(F)F)c2=O)c(F)cc1Cl (configuration not stated) [Carfentrazone-ethyl]?
A: Renilla luciferase signal (concentration: 0.01 uM): 0.995; Renilla luciferase signal (concentration: 0.1 uM): 1.11; Renilla luciferase signal (concentration: 1 uM): 0.895; Renilla luciferase signal (concentration: 10 uM): 0.956; Renilla luciferase signal (concentration: 100 uM): 1.9

Q: How did the Renilla luciferase signal (concentration: 0.1 uM) turn out when CC12CC1(C)C(=O)N(c1cc(Cl)cc(Cl)c1)C2=O (configuration not stated) [Procymidone] was run?
A: 0.813

Q: What about the Renilla luciferase signal (concentration: 1 uM) of the same compound?
A: 1.07

Q: And the Renilla luciferase signal (concentration: 10 uM)?
A: 1.07

Q: And the Renilla luciferase signal (concentration: 100 uM)?
A: 1.27

Q: Which results are given for S=C1NCCN1 [Ethylene thiourea]?
A: Renilla luciferase signal (concentration: 0.01 uM): 1.02; Renilla luciferase signal (concentration: 0.1 uM): 0.976; Renilla luciferase signal (concentration: 1 uM): 0.949; Renilla luciferase signal (concentration: 10 uM): 0.976; Renilla luciferase signal (concentration: 100 uM): 1.49

Q: OCCOc1ccccc1 [2-Phenoxyethanol] was tested. Which Renilla luciferase signal (concentration: 100 uM) did it give?
A: 1.74

Q: With COC(=O)C(C)Oc1ccc(Oc2ccc(Cl)cc2Cl)cc1 (configuration not stated) [Diclofop-methyl] as the compound, how does the Renilla luciferase signal (concentration: 0.01 uM) read?
A: 1.01

Q: What about the Renilla luciferase signal (concentration: 0.1 uM) of the same compound?
A: 0.869

Q: And the Renilla luciferase signal (concentration: 1 uM)?
A: 0.732

Q: What about the Renilla luciferase signal (concentration: 10 uM) of the same compound?
A: 0.936

Q: What about the Renilla luciferase signal (concentration: 100 uM) of the same compound?
A: 2.15

Q: Which Renilla luciferase signal (concentration: 0.01 uM) does the source give for CCCCC(CC)COC(=O)c1ccccc1C(=O)O (configuration not stated) here?
A: 0.848

Q: What about the Renilla luciferase signal (concentration: 0.1 uM) of the same compound?
A: 1.06

Q: And the Renilla luciferase signal (concentration: 1 uM)?
A: 0.966

Q: What about the Renilla luciferase signal (concentration: 10 uM) of the same compound?
A: 1.04

Q: And the Renilla luciferase signal (concentration: 100 uM)?
A: 1.23

Q: N#CC(CCc1ccc(Cl)cc1)(Cn1cncn1)c1ccccc1 (configuration not stated) [Fenbuconazole] was tested. Which Renilla luciferase signal (concentration: 0.01 uM) did it give?
A: 1.04

Q: What about the Renilla luciferase signal (concentration: 0.1 uM) of the same compound?
A: 0.994

Q: And the Renilla luciferase signal (concentration: 1 uM)?
A: 0.947

Q: And the Renilla luciferase signal (concentration: 10 uM)?
A: 1

Q: And the Renilla luciferase signal (concentration: 100 uM)?
A: 0.412

Q: Which results are given for NC(=O)[O-].[NH4+] [Ammonium carbamate]?
A: Renilla luciferase signal (concentration: 0.1 uM): 1.07; Renilla luciferase signal (concentration: 1 uM): 1.11; Renilla luciferase signal (concentration: 10 uM): 1.29; Renilla luciferase signal (concentration: 100 uM): 1.2

Q: What does the source list for COP(=O)(NC(C)=O)SC (configuration not stated) [Acephate]?
A: Renilla luciferase signal (concentration: 0.01 uM): 0.777; Renilla luciferase signal (concentration: 0.1 uM): 0.825; Renilla luciferase signal (concentration: 1 uM): 0.95; Renilla luciferase signal (concentration: 10 uM): 1; Renilla luciferase signal (concentration: 100 uM): 1.52

Q: Which Renilla luciferase signal (concentration: 0.01 uM) does the source give for COC(=O)N(C(=O)N1CO[C@@]2(C(=O)OC)Cc3cc(Cl)ccc3C2=N1)c1ccc(OC(F)(F)F)cc1 [Indoxacarb] here?
A: 1.15

Q: And the Renilla luciferase signal (concentration: 0.1 uM)?
A: 0.966

Q: What about the Renilla luciferase signal (concentration: 1 uM) of the same compound?
A: 0.983

Q: And the Renilla luciferase signal (concentration: 10 uM)?
A: 0.969

Q: And the Renilla luciferase signal (concentration: 100 uM)?
A: 0.281

Q: How did the Renilla luciferase signal (concentration: 0.01 uM) turn out when Oc1ccc(Cl)cc1Cc1ccccc1 [Clorophene] was run?
A: 1.13

Q: And the Renilla luciferase signal (concentration: 0.1 uM)?
A: 0.926

Q: And the Renilla luciferase signal (concentration: 1 uM)?
A: 0.908

Q: What about the Renilla luciferase signal (concentration: 10 uM) of the same compound?
A: 0.91

Q: And the Renilla luciferase signal (concentration: 100 uM)?
A: 0.023

Q: Which Renilla luciferase signal (concentration: 0.01 uM) does the source give for CCOP(=S)(OCC)Oc1cc(C)nc(C(C)C)n1 [Diazinon] here?
A: 1.18

Q: And the Renilla luciferase signal (concentration: 0.1 uM)?
A: 1.29

Q: And the Renilla luciferase signal (concentration: 1 uM)?
A: 1

Q: And the Renilla luciferase signal (concentration: 10 uM)?
A: 1.16

Q: And the Renilla luciferase signal (concentration: 100 uM)?
A: 1.38

Q: How did the Renilla luciferase signal (concentration: 0.01 uM) turn out when CCN(CC)c1nc(C)cc(OP(=S)(OC)OC)n1 [Pirimiphos-methyl] was run?
A: 1.11

Q: And the Renilla luciferase signal (concentration: 0.1 uM)?
A: 1.2

Q: What about the Renilla luciferase signal (concentration: 1 uM) of the same compound?
A: 1

Q: And the Renilla luciferase signal (concentration: 10 uM)?
A: 0.992

Q: What about the Renilla luciferase signal (concentration: 100 uM) of the same compound?
A: 1.53

Q: Which results are given for CN(C)c1ccccc1 [N,N-Dimethylaniline]?
A: Renilla luciferase signal (concentration: 0.1 uM): 1.06; Renilla luciferase signal (concentration: 1 uM): 0.888; Renilla luciferase signal (concentration: 10 uM): 1.04; Renilla luciferase signal (concentration: 100 uM): 0.97

Q: With O=S(=O)([O-])C(F)(F)C(F)(F)C(F)(F)C(F)(F)C(F)(F)C(F)(F)C(F)(F)C(F)(F)F.[K+] as the compound, how does the Renilla luciferase signal (concentration: 0.1 uM) read?
A: 0.964

Q: And the Renilla luciferase signal (concentration: 1 uM)?
A: 0.803

Q: And the Renilla luciferase signal (concentration: 10 uM)?
A: 0.865

Q: What about the Renilla luciferase signal (concentration: 100 uM) of the same compound?
A: 0.931

Q: Which results are given for CNC(=O)Oc1cccc2c1OC(C)(C)C2 [Carbofuran]?
A: Renilla luciferase signal (concentration: 0.1 uM): 1.05; Renilla luciferase signal (concentration: 1 uM): 1.01; Renilla luciferase signal (concentration: 10 uM): 0.953; Renilla luciferase signal (concentration: 100 uM): 0.523

Q: Which Renilla luciferase signal (concentration: 0.01 uM) does the source give for CCCCNC(=O)n1c(NC(=O)OC)nc2ccccc21 [Benomyl] here?
A: 0.968

Q: And the Renilla luciferase signal (concentration: 0.1 uM)?
A: 0.99

Q: And the Renilla luciferase signal (concentration: 1 uM)?
A: 0.92

Q: And the Renilla luciferase signal (concentration: 10 uM)?
A: 0.28

Q: And the Renilla luciferase signal (concentration: 100 uM)?
A: 0.279

Q: With OCCOCCO [Diethylene glycol] as the compound, how does the Renilla luciferase signal (concentration: 0.1 uM) read?
A: 0.817

Q: What about the Renilla luciferase signal (concentration: 1 uM) of the same compound?
A: 0.737

Q: What about the Renilla luciferase signal (concentration: 10 uM) of the same compound?
A: 0.891

Q: And the Renilla luciferase signal (concentration: 100 uM)?
A: 1.13

Q: Which results are given for C=C(C)[C@H]1Cc2c(ccc3c2O[C@@H]2COc4cc(OC)c(OC)cc4[C@@H]2C3=O)O1 [Rotenone]?
A: Renilla luciferase signal (concentration: 0.01 uM): 0.488; Renilla luciferase signal (concentration: 0.1 uM): 0.285; Renilla luciferase signal (concentration: 1 uM): 0.0713; Renilla luciferase signal (concentration: 10 uM): 0.078; Renilla luciferase signal (concentration: 100 uM): 0.0265

Q: For O=C(N[C@H]1CN2CCC1CC2)c1ccc2c(c1)OCCO2, which Renilla luciferase signal (concentration: 0.1 uM) is on record?
A: 1.05

Q: What about the Renilla luciferase signal (concentration: 1 uM) of the same compound?
A: 1.19

Q: And the Renilla luciferase signal (concentration: 10 uM)?
A: 1.13

Q: And the Renilla luciferase signal (concentration: 100 uM)?
A: 1.2

Q: COP(=O)(OC)C(O)C(Cl)(Cl)Cl (configuration not stated) [Trichlorfon] was tested. Which Renilla luciferase signal (concentration: 0.01 uM) did it give?
A: 1.04

Q: And the Renilla luciferase signal (concentration: 0.1 uM)?
A: 1.11

Q: And the Renilla luciferase signal (concentration: 1 uM)?
A: 1.03

Q: And the Renilla luciferase signal (concentration: 10 uM)?
A: 1.01

Q: And the Renilla luciferase signal (concentration: 100 uM)?
A: 0.772

Q: O=C(O)C(Cl)Cl [Dichloroacetic acid] was tested. Which Renilla luciferase signal (concentration: 0.1 uM) did it give?
A: 0.632

Q: And the Renilla luciferase signal (concentration: 1 uM)?
A: 0.827

Q: And the Renilla luciferase signal (concentration: 10 uM)?
A: 0.609

Q: What about the Renilla luciferase signal (concentration: 100 uM) of the same compound?
A: 0.702

Q: How did the Renilla luciferase signal (concentration: 0.01 uM) turn out when CCC(C)(NC(=O)c1cc(Cl)c(C)c(Cl)c1)C(=O)CCl (configuration not stated) [Zoxamide] was run?
A: 1.25

Q: And the Renilla luciferase signal (concentration: 0.1 uM)?
A: 1.05

Q: And the Renilla luciferase signal (concentration: 1 uM)?
A: 0.961

Q: What about the Renilla luciferase signal (concentration: 10 uM) of the same compound?
A: 0.117

Q: And the Renilla luciferase signal (concentration: 100 uM)?
A: 0.0244

Q: How did the Renilla luciferase signal (concentration: 0.1 uM) turn out when Oc1ccccc1Cl [2-Chlorophenol] was run?
A: 1.19

Q: And the Renilla luciferase signal (concentration: 1 uM)?
A: 1.26

Q: What about the Renilla luciferase signal (concentration: 10 uM) of the same compound?
A: 1.14

Q: What about the Renilla luciferase signal (concentration: 100 uM) of the same compound?
A: 1.35

Q: With CCN1CCC2(CC1)COc1cc3c(cc12)N(C(=O)c1ccc(-c2ccc(-c4nnc(C)o4)cc2C)cc1)CC3.Cl as the compound, how does the Renilla luciferase signal (concentration: 0.1 uM) read?
A: 0.932

Q: What about the Renilla luciferase signal (concentration: 1 uM) of the same compound?
A: 0.666

Q: What about the Renilla luciferase signal (concentration: 10 uM) of the same compound?
A: 0.149

Q: What about the Renilla luciferase signal (concentration: 100 uM) of the same compound?
A: 0.0466

Q: Which results are given for CCc1cccc(CC)c1N(COC)C(=O)CCl [Alachlor]?
A: Renilla luciferase signal (concentration: 0.01 uM): 1.06; Renilla luciferase signal (concentration: 0.1 uM): 1.16; Renilla luciferase signal (concentration: 1 uM): 1.12; Renilla luciferase signal (concentration: 10 uM): 0.99; Renilla luciferase signal (concentration: 100 uM): 0.467

Q: What does the source list for CCOC(=O)c1ccccc1C(=O)OCC [Diethyl phthalate]?
A: Renilla luciferase signal (concentration: 0.1 uM): 0.834; Renilla luciferase signal (concentration: 1 uM): 0.893; Renilla luciferase signal (concentration: 10 uM): 0.976; Renilla luciferase signal (concentration: 100 uM): 1.05

Q: With CCCN(CCC)c1c([N+](=O)[O-])cc(C(C)C)cc1[N+](=O)[O-] [Isopropalin] as the compound, how does the Renilla luciferase signal (concentration: 0.1 uM) read?
A: 0.928

Q: What about the Renilla luciferase signal (concentration: 1 uM) of the same compound?
A: 0.823

Q: What about the Renilla luciferase signal (concentration: 10 uM) of the same compound?
A: 0.977

Q: And the Renilla luciferase signal (concentration: 100 uM)?
A: 1.35

Q: How did the Renilla luciferase signal (concentration: 0.01 uM) turn out when Clc1ccccc1-c1nnc(-c2ccccc2Cl)nn1 [Clofentezine] was run?
A: 0.775

Q: And the Renilla luciferase signal (concentration: 0.1 uM)?
A: 0.807

Q: What about the Renilla luciferase signal (concentration: 1 uM) of the same compound?
A: 0.957

Q: What about the Renilla luciferase signal (concentration: 10 uM) of the same compound?
A: 1.03

Q: And the Renilla luciferase signal (concentration: 100 uM)?
A: 1.03

Q: For CC(C)(c1ccccc1)c1ccc(O)c(C(C)(C)c2ccccc2)c1 [2,4-Bis(1-methyl-1-phenylethyl)phenol], which Renilla luciferase signal (concentration: 0.1 uM) is on record?
A: 0.856

Q: And the Renilla luciferase signal (concentration: 1 uM)?
A: 0.888

Q: What about the Renilla luciferase signal (concentration: 10 uM) of the same compound?
A: 1.05

Q: What about the Renilla luciferase signal (concentration: 100 uM) of the same compound?
A: 1.14
